Test results published in article PMC11427348.
These are yes or no findings as the source states them, for the method shown. Binding seen in cells or lysates may run through a third protein. Here binding means that the protein was enriched with, or labelled near, the bait; the list need not be complete.

Chains of the proteins cited; added tags and fusions are not shown. Residues count along the entry.
UniProt O60488: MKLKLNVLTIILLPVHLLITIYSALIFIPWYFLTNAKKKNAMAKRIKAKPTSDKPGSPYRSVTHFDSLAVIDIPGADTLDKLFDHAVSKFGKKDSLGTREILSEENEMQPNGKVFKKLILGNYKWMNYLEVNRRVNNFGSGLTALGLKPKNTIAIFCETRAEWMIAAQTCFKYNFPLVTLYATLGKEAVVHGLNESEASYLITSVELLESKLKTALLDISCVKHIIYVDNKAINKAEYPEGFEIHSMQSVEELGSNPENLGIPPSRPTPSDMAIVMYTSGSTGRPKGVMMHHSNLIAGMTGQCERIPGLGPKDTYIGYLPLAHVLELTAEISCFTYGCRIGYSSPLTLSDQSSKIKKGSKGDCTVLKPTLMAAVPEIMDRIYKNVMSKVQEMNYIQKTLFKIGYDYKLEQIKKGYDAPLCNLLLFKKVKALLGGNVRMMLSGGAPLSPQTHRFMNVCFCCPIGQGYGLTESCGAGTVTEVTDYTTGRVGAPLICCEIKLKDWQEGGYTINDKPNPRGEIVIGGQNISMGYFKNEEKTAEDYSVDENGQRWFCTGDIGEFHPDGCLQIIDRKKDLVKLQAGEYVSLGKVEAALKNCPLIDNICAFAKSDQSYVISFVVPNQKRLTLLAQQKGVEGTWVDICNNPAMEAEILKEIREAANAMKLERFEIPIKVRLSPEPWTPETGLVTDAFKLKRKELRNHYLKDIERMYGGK
UniProt Q16822, residues 33-640: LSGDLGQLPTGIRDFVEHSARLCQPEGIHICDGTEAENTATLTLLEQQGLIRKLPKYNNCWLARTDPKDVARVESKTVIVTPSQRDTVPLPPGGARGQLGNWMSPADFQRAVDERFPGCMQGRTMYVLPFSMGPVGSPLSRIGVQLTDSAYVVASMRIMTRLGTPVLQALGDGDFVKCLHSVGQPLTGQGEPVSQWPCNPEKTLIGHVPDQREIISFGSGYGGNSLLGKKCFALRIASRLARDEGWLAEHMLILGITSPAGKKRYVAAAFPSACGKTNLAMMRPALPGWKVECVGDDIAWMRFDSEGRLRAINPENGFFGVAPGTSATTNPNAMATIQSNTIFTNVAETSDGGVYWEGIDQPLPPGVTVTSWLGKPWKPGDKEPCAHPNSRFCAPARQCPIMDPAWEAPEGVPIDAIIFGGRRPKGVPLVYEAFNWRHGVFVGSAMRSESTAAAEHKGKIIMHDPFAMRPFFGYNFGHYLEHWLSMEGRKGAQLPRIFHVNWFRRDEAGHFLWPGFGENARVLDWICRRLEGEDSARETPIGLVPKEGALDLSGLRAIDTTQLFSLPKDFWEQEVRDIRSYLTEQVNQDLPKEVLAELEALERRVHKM
UniProt P14618: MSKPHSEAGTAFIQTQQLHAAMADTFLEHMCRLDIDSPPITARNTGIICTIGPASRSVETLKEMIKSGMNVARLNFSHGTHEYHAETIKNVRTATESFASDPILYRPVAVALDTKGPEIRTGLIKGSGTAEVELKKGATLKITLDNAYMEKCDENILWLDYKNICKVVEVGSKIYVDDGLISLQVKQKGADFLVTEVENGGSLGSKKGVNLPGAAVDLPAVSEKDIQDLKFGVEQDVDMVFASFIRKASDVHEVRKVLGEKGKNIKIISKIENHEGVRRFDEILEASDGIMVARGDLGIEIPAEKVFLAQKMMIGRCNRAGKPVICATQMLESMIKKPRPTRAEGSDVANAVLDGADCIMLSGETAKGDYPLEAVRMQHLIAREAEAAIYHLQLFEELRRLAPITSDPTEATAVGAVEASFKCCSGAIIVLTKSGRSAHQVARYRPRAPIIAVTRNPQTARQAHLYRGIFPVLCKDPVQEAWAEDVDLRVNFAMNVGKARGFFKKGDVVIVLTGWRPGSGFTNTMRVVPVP

B1: PFKP, endogenous in HONE1 cells (protein, UniProt Q01813 1-784)
chain: MDADDSRAPKGSLRKFLEHLSGAGKAIGVLTSGGDAQGMNAAVRAVVRMGIYVGAKVYFIYEGYQGMVDGGSNIAEADWESVSSILQVGGTIIGSARCQAFRTREGRLKAACNLLQRGITNLCVIGGDGSLTGANLFRKEWSGLLEELARNGQIDKEAVQKYAYLNVVGMVGSIDNDFCGTDMTIGTDSALHRIIEVVDAIMTTAQSHQRTFVLEVMGRHCGYLALVSALACGADWVFLPESPPEEGWEEQMCVKLSENRARKKRLNIIIVAEGAIDTQNKPITSEKIKELVVTQLGYDTRVTILGHVQRGGTPSAFDRILASRMGVEAVIALLEATPDTPACVVSLNGNHAVRLPLMECVQMTQDVQKAMDERRFQDAVRLRGRSFAGNLNTYKRLAIKLPDDQIPKTNCNVAVINVGAPAAGMNAAVRSAVRVGIADGHRMLAIYDGFDGFAKGQIKEIGWTDVGGWTGQGGSILGTKRVLPGKYLEEIATQMRTHSINALLIIGGFEAYLGLLELSAAREKHEEFCVPMVMVPATVSNNVPGSDFSIGADTALNTITDTCDRIKQSASGTKRRVFIIETMGGYCGYLANMGGLAAGADAAYIFEEPFDIRDLQSNVEHLTEKMKTTIQRGLVLRNESCSENYTTDFIYQLYSEEGKGVFDCRKNVLGHMQQGGAPSPFDRNFGTKISARAMEWITAKLKEARGRGKKFTTDDSICVLGISKRNVIFQPVAELKKQTDFEHRIPKEQWWLKLRPLMKILAKYKASYDVSDSGQLEHVQPWSV
B2: Phosphatase PPM1G, endogenous in HONE1 cells (protein, UniProt O15355 1-546)
chain: MGAYLSQPNTVKCSGDGVGAPRLPLPYGFSAMQGWRVSMEDAHNCIPELDSETAMFSVYDGHGGEEVALYCAKYLPDIIKDQKAYKEGKLQKALEDAFLAIDAKLTTEEVIKELAQIAGRPTEDEDEKEKVADEDDVDNEEAALLHEEATMTIEELLTRYGQNCHKGPPHSKSGGGTGEEPGSQGLNGEAGPEDSTRETPSQENGPTAKAYTGFSSNSERGTEAGQVGEPGIPTGEAGPSCSSASDKLPRVAKSKFFEDSEDESDEAEEEEEDSEECSEEEDGYSSEEAENEEDEDDTEEAEEDDEEEEEEMMVPGMEGKEEPGSDSGTTAVVALIRGKQLIVANAGDSRCVVSEAGKALDMSYDHKPEDEVELARIKNAGGKVTMDGRVNGGLNLSRAIGDHFYKRNKNLPPEEQMISALPDIKVLTLTDDHEFMVIACDGIWNVMSSQEVVDFIQSKISQRDENGELRLLSSIVEELLDQCLAPDTSGDGTGCDNMTCIIICFKPRNTAELQPESGKRKLEEVLSTEGAEENGNSDKKKKAKRD

target: Acyl-CoA synthetase long chain family member 4 (ACSL4), endogenous in HONE1 cells (human (endogenous in HONE1)) (UniProt O60488); test: affinity purification with mass spectrometry; anti-ACSL4 immunoprecipitates from lysates of HONE1 bulk tumor cells or TRCs, quantitative LC-MS/MS

binding, binds:
Mitochondrial phosphoenolpyruvate carboxykinase 2 (PCK2), endogenous in HONE1 cells (from UniProt Q16822 33-640)
Pyruvate kinase M2 (PKM2), endogenous in HONE1 cells (from UniProt P14618 1-531)
B1
B2
